Test: MAS-DNP NMR performance of polarizing agents (DNP enhancement, buildup time, sensitivity)
Conditions: 10 mM in glycerol-d8/D2O/H2O (60:30:10), partially protonated aqueous matrix; 9.4, 8 kHz MAS, ~110 K

## CC1(C)Sc2c(c(C(c3c4c(c(C(=O)[O-])c5c3SC(C)(C)S5)SC(C)(C)S4)c3c4c(c(C(=O)N5CCN(C(=O)C6=CC(C)(C)N(O)C6(C)C)CC5)c5c3SC(C)(C)S5)SC(C)(C)S4)c3c(c2C(=O)[O-])SC(C)(C)S3)S1.[Na+].[Na+] [PyrroTriPol]
  returned sensitivity relative to TEMTriPol-1: 1.6 times

Reference: patent US20240400585A1, “TRITYL-NITROXIDE MULTIRADICALS AS POLARIZING AGENTS FOR DYNMAIC NUCLEAR POLARIZATION” (Commissariat a l'Energie Atomique et aux Energies …, priority 2021, published 2024)
